The values that follow are results of earlier work, collected in patent US8765150B2, “Riluzole aqueous suspensions” (Italfarmaco SpA, priority 2009, dated 2014).

The conditions of series [1]: under acidic conditions (pH 1.2).
For series [2] the following is noted: pH 1.2.

On to `Nc1nc2ccc(OC(F)(F)F)cc2s1` [Riluzole, 6-(trifluoromethoxy)benzothiazol-2-amine], for which the chemical stability result in series [1] is reported as “decreases dramatically”. For the same molecule, in series [2], the solubility entry is “about 12 mg/mL”.
